Data taken from publication PMC4492821.
Results are given in words; binding and its absence hold for the method and conditions named. In cells and extracts the contact can be indirect. Some binding calls cover weakened binding; strength is not graded here.

Sequences of proteins named here, by UniProt entry; tags and fusion partners are left off.
UniProt P25322: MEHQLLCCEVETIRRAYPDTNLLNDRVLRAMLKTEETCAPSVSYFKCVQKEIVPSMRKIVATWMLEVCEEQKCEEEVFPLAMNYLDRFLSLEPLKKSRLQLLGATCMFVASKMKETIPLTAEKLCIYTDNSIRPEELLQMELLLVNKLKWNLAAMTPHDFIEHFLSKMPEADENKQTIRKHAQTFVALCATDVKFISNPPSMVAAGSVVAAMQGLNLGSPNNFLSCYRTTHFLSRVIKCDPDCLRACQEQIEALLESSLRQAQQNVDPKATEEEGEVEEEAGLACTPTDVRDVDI

Molecular target: T1, CDK4 (mouse (endogenous in MAFs)) (UniProt P30285)
T1 sequence: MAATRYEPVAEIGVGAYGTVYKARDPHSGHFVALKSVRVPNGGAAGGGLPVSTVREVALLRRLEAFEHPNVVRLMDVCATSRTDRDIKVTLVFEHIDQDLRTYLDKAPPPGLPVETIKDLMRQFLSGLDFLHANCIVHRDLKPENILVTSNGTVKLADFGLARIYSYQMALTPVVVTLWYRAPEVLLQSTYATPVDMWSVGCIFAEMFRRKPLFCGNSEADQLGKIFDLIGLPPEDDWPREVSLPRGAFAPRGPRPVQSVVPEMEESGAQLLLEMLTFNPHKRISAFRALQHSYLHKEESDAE
Assay: co-IP; endogenous proteins in +/+ and KI/KI models; immunoprecipitation as previously described (Knudsen et al, 1998); the text shown does not say which protein was precipitated for Supplementary Fig S3B

With cyclin D1a (from UniProt P25322 1-295) the binding was “binds”.
